For 38 compounds, cell number change and AC50 results are on record in PubChem BioAssay AID2685 (National Center for Advancing Translational Sciences (NCATS), 2010).

Structures are written as SMILES. Some of the results follow. These are further read-outs of the screen, such as a control signal, another cell line or another target. No call is given for them. Compounds called inactive in the main read-out are mostly missing here. Potencies come from curve fits of mixed quality, noted in brackets.

The experiment in a line: qHTS Assay for Lipid Storage Modulators in Drosophila S3 Cells.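 On cell number change: cells counted by Cell Tracker Red CMTPX staining in the red channel.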 Particulars: BODIPY lipid droplet fluorescence, 18-24 h; for cell number change: measured here: cell count max response, cells fed with added oleic acid. The gist of the method: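 Drosophila S3 cells got compounds at several concentrations plus oleic acid (400 uM solution). Laser-scanning cytometry with 488 nm excitation read lipid droplets at 500-530 nm and cells at 575-640 nm. Percent activity was relative to 20 uM Triacsin C.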
Background: In qHTS, concentration-response curves come from the screen itself.

The mark [1] stands for this setting: measured here: cell number channel AC50, cells fed with added oleic acid.
Setting [2] is: measured here: lipid fluorescence (Fed channel) AC50, cells fed with added oleic acid.

In the case of `COc1cc(OC)cc(C(=O)N[C@H](C(=O)Nc2nc(-c3cc(OC)ccc3OC)cs2)C(C)C)c1`, the cell number change came to 8.28%.

Turning to `O=C(CCc1nc2ccccc2c(=O)[nH]1)OCCOc1ccc(Cl)cc1`, the AC50 under setting [1] was 6.51 µM [rising, single point].

Take `O=C(COC(=O)CN1C(=O)c2ccccc2C1=O)Nc1ccc(S(=O)(=O)N2CCCC2)cc1`: the cell number change is 20.7%. Under setting [2], the AC50 is 2.31 µM [falling, partial curve].

With `CCCCNc1ccc2c3c(cccc13)C(=O)N(CCCC)C2=O`, the cell number change is -101%. Further, under setting [1], the AC50 is 16.4 µM [falling, partial curve]. Besides, the AC50 under setting [2] was 7.31 µM [falling, partial curve].

Regarding `O=C(COC(=O)CNC(=O)c1cccc(OC(F)F)c1)NNC(=O)c1ccccc1`, the cell number change is -9.77%. Further, the AC50 under setting [2] is 0.184 µM [rising, full curve, poor fit].

With `O=C(O)c1ccc(COc2c(F)c(F)cc(F)c2F)cc1`, under setting [1], the AC50 is 0.651 µM [falling, single point].

As to `O=C(O)COc1ccc(Cl)cc1CO`, the cell number change came out at 8.53%.

`COc1ccccc1/C=C/C(=O)OC(C)CN1CCCCC1` (stereo unspecified): the cell number change amounted to 3.24%. Moreover, the AC50 under setting [2] was 29.1 µM [falling, single point].

For `Cc1cc(-n2cnc(-c3cn(C)nc3C)n2)no1`, the cell number change came out at 22%. In addition, the AC50 under setting [2] was 1.46 µM [rising, partial curve].

As to `CCc1ccc(Nc2nnc(SCC(=O)N(C)C3CCS(=O)(=O)C3)s2)cc1` (stereo unspecified), the cell number change is -18.2%. Under setting [2], the AC50 is 14.6 µM [falling, partial curve].

As for `COc1ccc(NC(=O)CSCC(=O)N(C)Cc2ccc3c(c2)OCCO3)cc1`, the cell number change is -19.9%. Also, the AC50 under setting [2] was 0.116 µM [rising, full curve, poor fit].

Turning to `COC(=O)c1cc(NS(=O)(=O)c2ccc(C)c3ccccc23)ccc1N1CCOCC1`, the AC50 under setting [1] was 0.58 µM [rising, single point].

With `CC1CCc2cc(F)cc3c(O)c(C(=O)NCC4CCCO4)c(=O)n1c23` (stereo unspecified), the cell number change was -8.6%. The AC50 under setting [1] is 0.82 µM [rising, full curve, poor fit]. Besides, the half-maximal activity concentration (AC50) under setting [2] was 16.4 µM [rising, partial curve].

On to `CC(=O)Nc1ccccc1NC(=O)C(F)(F)F`, for which the AC50 under setting [2] is 5.8 µM [falling, full curve, poor fit].

Consider `CCOC(=O)CSc1nc2sc3c(c2c(=O)n1-c1ccc(OC)cc1)CCN(C)C3`, for which the cell number change was 36.6%. Also, the AC50 under setting [1] was 6.51 µM [rising, full curve, poor fit]. For the same compound, under setting [2], the AC50 is 6.51 µM [rising, partial curve, poor fit].

Regarding `COc1ccc(Cn2c(=O)[nH]c3cc(C(=O)N4CCN(c5ccccc5)CC4)ccc3c2=O)cc1`, the cell number change is 23.5%.

In the case of `COCc1cc(C)nc(OCC(=O)N/N=C/c2ccc(O)cc2)c1C#N`, the cell number change is -0.0159%. Further, the AC50 under setting [2] is 9.2 µM [rising, partial curve].

`CCOC(=O)c1[nH]cnc1C(=O)Nc1ccccc1`: the cell number change stood at 14.4%. Further, the AC50 under setting [2] was 0.103 µM [falling, full curve, poor fit].

Take `CCc1ncc(CN2CCCCC2C(=O)Nc2ccc(Oc3ccccc3)nc2)cn1` (stereo unspecified): the cell number change is -47.4%. Further, the AC50 under setting [1] was 29.1 µM [falling, partial curve, poor fit].

For `Cn1nnnc1SCC(=O)Nc1cccc(S(=O)(=O)N2CCCC2)c1`, the cell number change was 0.947%. Further, the AC50 under setting [1] is 0.116 µM [falling, full curve, poor fit]. Under setting [2], the AC50 is 0.13 µM [falling, full curve, poor fit].

Regarding `CN(C)CCn1c2c(c(SCC(=O)Nc3nccs3)nc1=O)CCCC2`, the cell number change amounted to 1.82%.

Take `CCc1ccc(/C=N/NC(=O)c2cc(-c3ccncc3)nc3ccccc23)s1`: the cell number change was 36.7%. The AC50 under setting [1] was 2.31 µM [rising, full curve]. The AC50 under setting [2] was 3.26 µM [rising, full curve].

Turning to `CCCS(=O)(=O)N1CCCC(C(=O)NCCCN(C)Cc2ccccc2)C1` (stereo unspecified), the cell number change was -11.6%. The AC50 under setting [2] is 7.31 µM [falling, partial curve, poor fit].

With `Cc1cc(Cl)nc(Cl)c1C(=O)NCCc1ccccc1`, the cell number change was -12.7%.

For the compound `CCN(CC)S(=O)(=O)c1ccc(OC)c(NC(=O)CCc2c(C)noc2C)c1`, the cell number change was -3.15%.

Regarding `S=C(NC1CCCC1)N1CCN(c2ncccn2)CC1`, the cell number change stood at 66.7%. Also, the concentration at half-maximal activity (AC50) under setting [1] is 29.1 µM [rising, single point]. Also, the AC50 under setting [2] was 29.1 µM [rising, single point].

With `CCCN1CCC(=O)N([C@H](CSc2ccc(C)cc2)Cc2ccccc2)CC1`, the cell number change was -37.1%. For the same compound, under setting [1], the AC50 was 20.6 µM [falling, partial curve, poor fit]. Also, under setting [2], the AC50 was 29.1 µM [falling, single point].

Take `CCN(CC)S(=O)(=O)c1ccc(C(=O)Nn2cnnc2)cc1`: the cell number change is -8.7%. In addition, under setting [2], the AC50 was 0.00461 µM [falling, full curve, poor fit].

As to `COCCN1C(=O)C(=O)/C(=C(/O)c2ccc(S(=O)(=O)N3CCOCC3)cc2)C1c1ccc(C(C)C)cc1` (stereo unspecified), the cell number change amounted to 2.2%. Further, the AC50 under setting [2] was 3.26 µM [rising, full curve].

Regarding `Cc1nn(C(=O)c2cccnc2)c(C)c1Sc1ccc(Br)cc1`, the cell number change was -27.9%. The AC50 under setting [2] was 29.1 µM [falling, single point].

For `CCOCCCn1c(=S)[nH]c2cc(C(=O)NCCOC)ccc2c1=O`, the cell number change is -18.8%.

For the compound `CCc1nnc(NC(=O)C2Cc3ccccc3CN2S(=O)(=O)CC)s1` (stereo unspecified), the cell number change worked out at 38.4%. Also, the AC50 under setting [1] is 16.4 µM [rising, single point].

Take `COc1ccc(N(C)C(=O)C2CCN(S(=O)(=O)c3cccc4nsnc34)CC2)cc1`: the cell number change worked out at 17.2%. Also, the AC50 under setting [2] was 29.1 µM [rising, single point].

Consider `COc1ccc(C)cc1NC(=O)CN1CCN(S(=O)(=O)c2ccc(Cl)cc2)CC1`, for which the cell number change was 265%. Besides, under setting [1], the AC50 was 16.4 µM [rising, partial curve]. Also, the AC50 under setting [2] was 20.6 µM [rising, partial curve].

For `COc1cccc(NS(=O)(=O)c2ccc3c(c2)CCN3C(C)=O)c1`, the AC50 under setting [2] is 0.58 µM [falling, single point].

Turning to `CCOc1ccccc1NC(=O)NC1(C(=O)NCc2cccnc2)CCCCC1`, the cell number change was -11.3%.

In the case of `COc1ccc(-c2[nH]c(-c3ccc(F)cc3)nc2SCC(=O)NCc2ccco2)cc1OC`, the cell number change is -8.56%. For the same compound, under setting [2], the AC50 is 0.146 µM [falling, full curve, poor fit].

In the case of `CN(CC(=O)Nc1ccc(F)cc1)C(=O)CSc1ccc2c(c1)OCCO2`, the cell number change is -22.2%. The AC50 under setting [2] was 0.651 µM [falling, single point].

In general, AC50 refers to the concentration giving half of the maximal activity seen.
